Test results taken from paper PMC10163288.
This is one part of the list.

B1: il2ra_site1_3nfp_normal_mot_HHH_b1_07180_af2_000000260_0001_1_19_H_._HHH_b1_03230_af2_0001_0000300012_0000001_1_af2pred_0001_af2pred_1 (protein)
chain: SSSSDEEERLLEEAQEELKRLLEEGDPKEASKLAEEVIRELRKLGNRELVEELLEFALRSSSSSS
B2: il2ra_site2_3nfp_sap_17_mot_HHH_b1_05627_af2_000000038_0001_43_56_H_._HHH_b1_00869_af2_0001_0000100004_0000001_0_0001 (protein)
chain: SSSSSEAEEYVKAALALLRRAIEEGDEEAAEKLIEMLRLAIESQENPELREELEELEKALDSSSS
B3: il2ra_site2_2erj_sap_18_mot_HHH_b1_02757_000000121_0001_41_57_H_._HHH_b1_07850_0001_0000400009_0000001_0_0001 (protein)
chain: SSSSDVEEEVRRLLEEAEEAYEEGDLHEVYRLLNEALRLASENQDPELIELVHKVAEEMSSSSSS
B4: il2ra_site2_2erj_normal_mot_2e60acbd11533cd3bad2fa8ba2aa37e0_0001_af2_000000288_0001_35_49_H_._HHH_b1_06043_0001_0000600028_0000001_0 (protein)
chain: SSSSDSEEVFEEAREELEELLKEGNIEEAFKVLVEAAMRLLRLGNFELAERLLEIAQELASSSSS
B5: il2ra_site1_1z92_normal_mot_203a44625a3a2ba431098544127a80a6_0001_af2_000000214_0001_15_33_H_._HHH_b1_04183_0001_0000200013_0000001_0_af2pred_0001_af2pred (protein)
chain: SSSSSSEEKFARQAVRVLVELAGLSEEQKEELEELAEELVRRGLDPLEIAQLLAELAIRLSSSSS
B6: il2ra_site1_1z92_sap_12_mot_HHH_b1_02997_af2_000000005_0001_39_52_H_._HHH_b2_00881_af2_0001_0000100007_0000001_0_0001_af2pred_0001_af2pred_swapped (protein)
chain: SSSSDLEELAREIVEEIVKELGLSEEERRALEYAAEVAVRAGFSEKSIRIALQRAAERSLSSSSS
B7: il2ra_site1_2b5i_normal_mot_HHH_b2_01822_000000237_0001_40_54_H_._HEEHE_1920_0001_0000300027_0000001_0 (protein)
chain: SERAKLIWILMEVAQELDVPSVNVRVRNGKVHITILGTDESAEELSRVAEEVAEELGVDVEVEVH
B8: il2ra_site2_3nfp_normal_mot_7cf5847eaa050a71bc877a27954f5424_0001_1_af2_000000114_0001_17_30_H_._c458a205a670bde904f9ae2de9a5ce79_0001_1_0001_0000100001_0000001 … (protein)
chain: SFAWRLERAVEEGNLEEVLKKYVEAAEERTGNPEDAESLALAVIEFVLPDPRLQEEAKKIVEEVG
B9: il2ra_site2_2erj_sap_17_mot_HHH_b1_06320_000000123_0001_1_19_H_._HHH_b1_03307_af2_0001_0000300011_0000001_0_0001 (protein)
chain: SSSSSSDKLHKMFELLNQLMSAKSEEEIERILEEIEKLAEETNSENLEELLRDLERLLSSSSSSS
B10: il2ra_site1_1z92_normal_mot_54e474eed2d0515e81978198f0f96ec2_0001_000000202_0001_15_30_H_._HHH_b1_02168_af2_0001_0000200012_0000001_0_af2pred_0001_af2pred_1_swa … (protein)
chain: SSSSSEEEEEEVKEVVERLVEELGLDEEEKKAFEKDAEQALKRGIDPRAVERVLELIAKLASSSS
B11: il2ra_site1_1z92_sap_19_mot_HHH_b2_06842_af2_000000285_0001_42_55_H_._acc43fb67f959da0cf4372ddf554ea88_0001_0001_0000500016_0000001_0_0001_af2pred_0001_af2pred_ … (protein)
chain: SSSSDRQERIIEILVRNIERALKAGNPRAARRLLEELERLAKELNDEEAEELVKELKELINSSSS
B12: il2ra_site2_2erj_normal_mot_HHH_b2_06411_000000092_0001_40_56_H_._HHH_b2_02829_0001_0000100019_0000001_0 (protein)
chain: SSSSDELERLYELAVLLVRLVFNNDEEEFEKVVKEAEELAEKLQSESAKEAIEFLERELGSSSSS
B13: il2ra_site1_1z92_normal_mot_c9a8daa1dfea21d1414aecde54be4f54_0001_1_af2_000000024_0001_32_46_H_._3abea1aeba1101aad97199a57a9882c4_0001_af2_0001_0000600021_00000 … (protein)
chain: DLEKDFEHAKKAGFDPRNAAKALIAALERINKVPPEEAIEILLRLAEELGDEELFEVVEKLEKDP
B14: il2ra_site2_2erj_sap_24_mot_HHH_b2_07386_000000253_0001_42_56_H_._HHH_b1_07606_0001_0000400017_0000001_0_0001 (protein)
chain: SSSSSDELRKVYEILVEALRLAAEGNPEEARELLEEAIEEAEERGDEAAARILREAVEQFSSSSS
B15: il2ra_site1_3nfp_sap_21_mot_HHH_b1_05128_000000175_0001_22_38_H_._HHH_b2_00648_0001_0001200017_0000001_0_0001_af2pred_0001_af2pred (protein)
chain: SSSSNWLEKALKRFVEDAVRSAGLSEEEQKELEELAEELARRGVDSREAARILAEVAFRLLSSSS
B16: il2ra_site1_2b5i_sap_7_mot_HHH_b1_02271_000000068_0001_1_16_H_._HHH_b1_06384_af2_0001_0000500030_0000001_0_0001 (protein)
chain: SSSDLDERIQKLFREASELHRKGDHEEAEKVVEEAIELAREAGDEHIAKQLEEMLEYIQRVSSSS
B17: il2ra_site1_3nfp_sap_16_mot_5dea99290cf7e133ebc5b763b21a7a39_0001_000000160_0001_34_49_H_._HHH_b1_06214_0001_0000500017_0000001_0_0001 (protein)
chain: NFVERLIEEIEKRDEELSELLREVYELAEKKQDPRLLELLIKALALIQLGNPEEAKKLLEEAAKR
B18: il2ra_site2_2erj_normal_mot_HHH_b1_05749_af2_000000010_0001_23_39_H_._HHH_b2_02672_0001_0000100005_0000001_0 (protein)
chain: SSSSDEELEELYRLAVELLRLVSEGDKEKIEELLEEIEQLAEELQSDTAREVLELVKELLSSSSS

molecular target: il2ra, P01589; test: yeast display titration

Apparent Kd, inactive:
B1 no binding seen
B2 no binding seen
B3 no binding seen
B4 no binding seen
B5 no binding seen
B6 no binding seen
B7 no binding seen
B8 no binding seen
B9 no binding seen
B10 no binding seen
B11 no binding seen
B12 no binding seen
B13 no binding seen
B14 no binding seen
B15 no binding seen
B16 no binding seen
B17 no binding seen
B18 no binding seen
